Test: general procedure: Fmoc solid-phase peptide synthesis
Settings: whole synthesis, reverse phase HPLC, one disulfide bridge, sequence written open

(K)16RVRRGACRGDCLG
final HPLC purity: >90%

— patent US20210170046 (published 2021)
